In patent EP0422134B1, “5-HT SELECTIVE AGENTS” (ABBOTT LABORATORIES, priority 1988, dated 1990):

Test system: 5-HT1
Test: Radioligand binding, tritiated 5-HT, rat frontal cortex homogenate (total 5-HT1)
Settings: Hill plot of tritiated 5-HT displacement
Description: Male Sprague-Dawley rats (150-200 g) were sacrificed and the brains were rapidly removed and placed on ice. The frontal cortext, including the portion immediately above the striatum and part of the parietal cortex were dissected. Tissues from 6-10 rats were pooled and homogenized in at least 40 volumes of tris-HCI buffer (0.05 M, pH 7.4) using a Brinkman Polytron (setting 5 for 20 seconds). This homogenate was centrifuged (48,000 G for 10 minutes), the pellet resuspended, and the process repeated three more times. Between the second and third washes, the tissue homogenate was incubated for 10 minutes at 37°C. The final pellet was resuspended in 100 volumes of TRIS buffer for use in the binding assay.
Radioligand binding affinity for subtypes of the serotonin receptor was determined by the method of Pedigo, Yamamura, and Nelson, op. cit. Tissue homogenate (0.5 mL) from rat frontal cortex, together with various concentrations of tritiated 5-HT and test compounds were added to glass tubes containing modified tris-HCI buffer to obtain, in each case, a final volume of 2 mL and having the following compositions: 5.7 mM ascorbate, 10 micromolar pargyline, 4mM CaCl2, 50 mM TRIS buffer; pH 7.4 at 37°C.
Each mixture was incubated for 15 minutes at 37°C and then vacuum filtered through Whatman GF/B filters followed by three 5 mL washes with cold TRIS buffer. Radioactivity was extracted overnight in 3 mL of scintillation liquid and measured by liquid scintillation spectrometry (50% efficiency).
Binding parameters for saturation and drug displacement studies were calculated by Scatchard analysis and from Hill plots, respectively.

Compound	Hill Slope
4-Methoxy-2-(4-(3aα,4a,5,6,7aα-hexahydro-4,7-methano-1H-isoindol-1,3(2H)-dionyl)-butyl)-1,2,3,3a, 8,8a-hexahydroindeno[1,2-c]pyrrole hydrochloride [Example 55]	0.35
COc1cccc2c1[C@H]1CCN(CCCCN3C(=O)CC4(CCCC4)CC3=O)C[C@@H]1C2 (relative stereo) [Example 51, trans-2-(4-(3,3-tetramethylene)glutarimidyl)butyl-5-methoxy-2,3,4,4a,9,9a-hexahydro-1H-indeno [2,1-c] pyridine hydrochloride]	0.26
COc1c(Cl)ccc2c1C1CN(CCCCN3C(=O)CC4(CCCC4)CC3=O)CC1C2 (stereo not shown) [Example 8, 2-(4-(3,3-tetramethylene)glutarimidyl)butyl-5-chroro-4-methoxy-1,2,3,3a,8,8a-hexahydroindeno[1,2-c] pyrrole hydrochloride]	0.41
COc1cccc2c1C1CN(CCCCCN3C(=O)CC4(CCCC4)CC3=O)CC1C2 (stereo not shown) [Example 28, 2-(5-(3,3-tetramethylene)glutarimidyl)pentyl-4-methoxy-1,2,3,3a,8,8a-hexahydroindeno[1,2-c]pyrrole hydrochloride]	0.62
COc1cccc2c1C1CN(CCCN3C(=O)CC4(CCCC4)CC3=O)CC1C2 (stereo not shown) [Example 26, 2-(3-(3,3-tetramethylene)glutarimidyl)propyl-4-methoxy-1,2,3,3a,8,8a-hexahydroindeno[1,2-c]pyrrole hydrochloride]	0.56
O=C1CC2(CCCC2)CC(=O)N1CCCCN1CC2Cc3cccc(O)c3C2C1 (stereo not shown) [Example 20, 2-(4-(3,3-tetramethylene)glutarimidyl)butyl-4-hydroxy-1,2,3,3a,8,8a-hexahydroindeno[1,2-c]pyrrole hydrobromide]	0.448
O=C1c2ccccc2S(=O)(=O)N1CCCCN1CC2Cc3cccc(O)c3C2C1 (stereo not shown) [Example 22, 4-Hydroxy-2-(4-(2-(1.2-benzisothiazolin-3-one-1,1-dioxide))butyl)-1,2,3,3a,8,8a-hexahydroindeno-[1,2-c]pyrrole hydrochloride]	0.463
COc1cccc2c1C1CN(C/C=C\CN3C(=O)CC4(CCCC4)CC3=O)CC1C2 (stereo not drawn) [Example 29, 2-(4-(3,3-tetramethylene)glutarimidyl)-cis-but-2-enyl-4-methoxy-1,2,3,3a,8,8a-hexahydroindeno [1,2-c] pyrrole hydrochloride]	0.62
COc1cccc2c1C1CCN(CCNC(=O)c3ccc(F)cc3)CC1C2 (stereo not drawn) [Example 58, trans-2-(2-(4-fluorobenzamido)ethyl)-5-methoxy-2,3,4,4a,9.9a-hexahydro-1H-indeno[2,1-c]pyridine hydrochloride]	0.394
O=C1CC2(CCCC2)CC(=O)N1CCCN1CC2Cc3cccc(O)c3C2C1 (stereo not shown) [Example 27, 2-(3-(3,3-tetramethylene)glutarimidyl)propyl-4-hydroxy-1,2,3,3a,8,8a-hexahydroindeno[1,2-c]pyrrole hydrobromide]	0.38
COc1cccc2c1C1CN(CCCCN3C(=O)c4ccccc4S3(=O)=O)CC1C2 (stereo not shown) [Example 21, 4-Methoxy-2-(4-(2-(1,2-benzisothiazolin-3-one1,1-dioxide))butyl)1,2,3,3a,8,8a-hexahydroindeno-[1,2-c]pyrrole hydrochloride]	0.546
COc1cccc2c1[C@H]1CCN(CCCN3C(=O)CC4(CCCC4)CC3=O)C[C@@H]1C2 (relative stereo) [Example 50, trans-2-(3-(3,3-tetramethylene)glutarimidyl)propyl-5-methoxy-2,3,4,4a,9,9a-hexahydro-1 H-indeno [2,1-c]pyridine hydrochloride]	0.45
COc1cccc2c1C1CN(C[C@@H]3COc4ccccc4O3)CC1C2 (stereo partly drawn) [Example 32, 2R-(1,4-benzodioxanyl-2-methyl)-4-methoxy-1,2,3,3a,8,8a-hexahydroindeno[1,2-c]pyrrole hydrochloride]	0.539
COc1cccc2c1C1CN(CCCCN3C(=O)CC4(CCCC4)CC3=O)CC1C2 (stereo not shown) [Example 7, 2-(4-(3,3-tetramethylene)glutarimidyl)butyl-4-methoxy-1,2,3,3a,8,8a-hexahydoindeno[1,2-c]pyrrole hydrochloride]	0.265
COc1cccc2c1[C@H]1CCN(CCCN3C(=O)c4ccccc4S3(=O)=O)C[C@@H]1C2 (relative stereo) [Example 56, trans-2(3-(2-(1,2-benzisothiazolin-3-one-1,1-dioxyde))propyl)-5-methoxy-2,3,4,4a,9,9a-hexahydro-1 H-indeno[2,1-c]pyridine hydrochloride]	0.369
COc1cccc2c1C1CN(C[C@H]3COc4ccccc4O3)CC1C2 (stereo partly drawn) [Example 31, 2S-(1,4-benzodioxanyl-2-methyl)-4-methoxy-1,2,3,3a,8,8a-hexahydroindeno[1,2-c]pyrrole hydrochloride]	0.445
COc1cccc2c1C1CN(CCCCN3C(=O)CC(C)(C)CC3=O)CC1C2 (stereo not shown) [Example 23, 2-(4-(3,3-dimethyl)glutarimidyl)butyl-4-methoxy-1,2,3,3a,8,8a-hexahydroindeno-[1,2-c]pyrrole hydrochloride]	0.455
O=C1CC2(CCCC2)CC(=O)N1CCCCN1CC2Cc3ccc(Cl)c(O)c3C2C1 (stereo not shown) [Example 52, 2-(4-(3,3-Tetramethylene)glutarimidyl)butyl-5-chloro-4-hydroxy-1,2,3,3a,8,8a-hexahydroindeno[1,2-c]-pyrrole hydrobromide]	0.34
COc1cccc2c1C1CN(CCCCN3C(=O)C4C5C=CC(C6C=CC65)C4C3=O)CC1C2 (stereo not shown) [Example 54, 4-Methoxy-2-(4-(3a,4,4a,6a,7,7a-hexahydro-4,7-etheno-1H-cyclobut[flisoindol-1,3-dionyl)-butyl)-1,2,3,3a,8,8a-hexahydroindeno-[1,2-c]pyrrole hydrochloride]	0.33
COc1cccc2c1C1CCN(CCCCN3C(=O)CC4(CCCC4)CC3=O)CC1C2 (stereo not shown) [Example 44, hydrochloride]	0.46
Br.O=C(NCCN1CC2Cc3cccc(O)c3C2C1)c1ccc(F)cc1 (stereo not shown) [Example 19, 4-Hydroxy-2-(2-(4-fluorobenzamido)ethyl)-1,2,3,3a,8,8a-hexahydroindeno[1,2-c]pyrrole hydrobromide]	0.33
COc1cccc2c1C1CN(C/C=C/CN3C(=O)CC4(CCCC4)CC3=O)CC1C2 (stereo not drawn) [Example 30, 2-(4-(3,3-tetramethylene)glutarimidyl)-trans-but-2-enyl-4-methoxy-1,2,3,3a,8,8a-hexahydroindeno [1,2-c]pyrrole hydrochloride]	0.37
COc1cccc2c1[C@H]1CCN(CCCCN3C(=O)c4ccccc4S3(=O)=O)C[C@@H]1C2 (relative stereo) [Example 57, trans-2(4-(2-(1,2-benzisothiazolin-3-one-1,1-dioxyde))butyl)-5-methoxy-2,3,4,4a,9,9a-hexahydro-1H-indeno[2,1-c]pyridine hydrochloride]	0.618
COc1cccc2c1C1CCN(CCCN3C(=O)CC4(CCCC4)CC3=O)CC1C2 (stereo not drawn) [Example 43, cis-2-(3-(3,3-tetramethylene)glutarimidyl)propyl-5-methoxy-2,3,4,4a,9,9a-hexahydro-1H-indeno[2,1-c] pyridine hydrochloride]	0.39
COc1cccc2c1C1CN(CCCCN3C(=O)c4ccccc4C3=O)CC1C2 (stereo not shown) [Example 24, 4-Methoxy-2-(4-(2-phthalimido)butyl)-1,2,3,3a,8,8a-hexahydroindeno[1,2-c]pyrrole hydrochloride]	0.563

Structures can show the parent of a compound that is named as a salt.
